In all, about 400,000 compounds went through this assay and about 13,000 (3.2%) were called active. The inconclusive results got no clear call from the source; some entries with a clear call stand among them for comparison. Calls come from the whole dose curve; as a rule, active = well fitted cell-killing curve with a large enough effect; inconclusive = small, poorly fitted or top-dose-only effect, or effect the other way; inactive = flat fitted curve, though single readings scatter. Where the call is inconclusive, the potency comes from a doubtful curve fit.
Assay: qHTS assay for MDR1-selective chemotherapeutics: Primary screen using the drug-selected MDR subline cells KB-V1; note: nearly all actives have a fitted effect of over 60% in size
Conditions: KB-V1 MDR cells viability, CellTiter-Glo, 72 h; series mostly up to 46.1 µM
Outline: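 qHTS viability screen in drug-selected KB-V1 MDR cells: 72 h compound treatment at 37 degrees C, ATP luminescence end point.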
In the case of `CCCCNC(=O)C1C(c2ccc(OC)cc2)=Nc2ccccc2N1C(=O)c1ccncc1` (configuration not stated), the Potency is reported as inconclusive: 6.51 µM [cytotoxic, partial curve, poor fit].
With `CSc1ccc(Cn2c(C)c(C(=O)NCc3cccc(Cl)c3)sc2=O)cc1` the Potency was active: 9.2 µM.
For `O=C(Nc1nc2c(s1)CN(Cc1ccccc1)CC2)C1CCC1`, the Potency was “inactive”.
With `COc1cccc(NC(=O)N2CCC(NC(=O)C(Cc3ccccc3F)NC(C)=O)CC2)c1` (configuration not stated) the Potency was “inactive”.
In the case of `COc1ccc(NC(=O)CNS(=O)(=O)c2ccccc2)cc1Cl`, the Potency is reported as inconclusive: 29.1 µM [cytotoxic, single point].
With `CS(=O)(=O)N(CC(=O)Nc1ccccc1Br)Cc1ccccc1` the Potency was inconclusive: 16.4 µM [cytotoxic, partial curve, poor fit].
With `CC1CN(C(=O)CCC(=O)NCCCc2ccccc2)c2ccccc2O1` (configuration not stated) the Potency was “inactive”.
For `O=C(Nc1cc(=O)c2ccccc2o1)N1CCOCC1`, the Potency was inconclusive: 29.1 µM [cytotoxic, single point].
In the case of `Cc1ccc(-n2c(N)c(C(=O)Nc3c(C)n(C)n(-c4ccccc4)c3=O)c3nc4ccccc4nc32)cc1`, the Potency is reported as active: 23.1 µM.
In the case of `CCOC(=O)N1CCc2c(sc(NC(=O)CN3CCOCC3)c2C#N)C1`, the Potency is reported as inconclusive: 23.1 µM [cytotoxic, single point].
In the case of `NC(=O)c1ccsc1NC(=O)CN1CCN(S(=O)(=O)c2ccccc2C(F)(F)F)CC1`, the Potency is reported as inconclusive: 16.4 µM [cytotoxic, single point].
With `CC1(C)CC(=O)C=C(c2n[nH]nc2-c2ccc(F)c(F)c2)C1` the Potency was “inactive”.
For `COc1ccccc1CNc1ccc(-c2nc(-c3ccco3)no2)cc1[N+](=O)[O-]`, the Potency was “inactive”.
For `C=CCN1C(=O)/C(=C/c2ccc(O)c(OC)c2)S/C1=N/c1nccs1`, the Potency was active: 14.6 µM.
For `CN(C)C(CNC(=O)c1cccc(S(=O)(=O)N2CCN(c3ccc(F)cc3)CC2)c1)c1ccccc1` (configuration not stated), the Potency was “inactive”.
For `CC(C)CCN1C(=O)c2cccc3c(N)ccc(c23)C1=O`, the Potency was “inactive”.
In the case of `Cc1c(C(=O)OCC(=O)Nc2ccc3c(c2)OCO3)cccc1[N+](=O)[O-]`, the Potency is reported as inconclusive: 13 µM [cytotoxic, partial curve, poor fit].
With `CC1CCCCC1NC(=O)CN1CCC(NC(=O)c2ccc([N+](=O)[O-])cc2)CC1` (configuration not stated) the Potency was inconclusive: 16.4 µM [cytotoxic, single point].
With `CCC1C(=O)C[C@H]2CCN3C(=O)CCCC1C23` (some centres not stated) the Potency was inconclusive: 29.1 µM [rising, single point].
With `CC(=O)N/C(=N\OCc1ccc(Br)cc1)c1nonc1NC(C)=O` the Potency was inconclusive: 29.1 µM [cytotoxic, partial curve, poor fit].
With `COc1ccc2nc(Nc3ccccc3OC)sc2c1` the Potency was inconclusive: 23.1 µM [cytotoxic, single point].
For `CCCn1c(SCc2ccccc2)nc2c1c(=O)[nH]c(=O)n2C`, the Potency was inconclusive: 29.1 µM [cytotoxic, single point].
In the case of `COc1ccc(Cn2c(=N)c(C(=O)NC3CCCCC3)cc3c(=O)n4ccccc4nc32)cc1`, the Potency is reported as “inactive”.
For `CN(CC(=O)Nc1ccccc1Br)C(=O)c1ccc(COc2ccccc2)cc1`, the Potency was inconclusive: 16.4 µM [cytotoxic, partial curve].
For `COc1ccc(NC(=O)Cn2cnc3c(oc4ccccc43)c2=O)cc1OC`, the Potency was inconclusive: 11.6 µM [rising, partial curve, poor fit].
With `CC(C)NC(=O)C1CCC(Cn2c(=O)c3sccc3n(CC(=O)NCc3ccccc3)c2=O)CC1` (configuration not stated) the Potency was inconclusive: 16.4 µM [rising, single point].
With `N#C/C(=C\c1ccc[nH]1)Sc1nc2ccccc2s1` the Potency was inconclusive: 25.9 µM [cytotoxic, partial curve, poor fit].
For `Cc1ccc(S(=O)(=O)N(CC(=O)Nc2ccc(C(N)=O)cc2)C(=O)N2CCN(C)CC2)cc1`, the Potency was inconclusive: 29.1 µM [rising, single point].
With `Cc1ccc(-n2nc3cc(C)c(NC(=S)NC(=O)/C=C/c4ccco4)cc3n2)cc1` the Potency was “inactive”.
With `CCOC(=O)C1=C[C@@H](C(C)(C)C)N(S(=O)(=O)c2ccc(C)cc2)[C@H]1c1ccc(Cl)c(Cl)c1` the Potency was inconclusive: 16.4 µM [cytotoxic, single point].
For `CC(C)C(=O)NNC(=O)CC(=O)Nc1ccccc1C(=O)O`, the Potency was “inactive”.
In the case of `CCOC(=O)C/C(N)=N/NC(=O)c1ccc(Cl)cc1Cl`, the Potency is reported as “inactive”.
In the case of `CC(C)c1ccc(OCC(=O)NCc2ccccc2)cc1`, the Potency is reported as inconclusive: 1.3 µM [rising, full curve].
For `CC(C)N1C(=S)N(Cc2ccco2)C(=O)C1CC(=O)Nc1ccccc1` (configuration not stated), the Potency was inconclusive: 9.2 µM [cytotoxic, partial curve].
For `Cc1ccc(NC(=O)COc2ccc(-n3ccnc3)cc2)cc1Cl`, the Potency was inconclusive: 20.6 µM [cytotoxic, partial curve, poor fit].
With `Cc1ccc(/C=N/NC(=O)Cn2cnc3ccccc32)cc1` the Potency was inconclusive: 29.1 µM [rising, single point].
In the case of `Cc1nn(C(C)C(=O)Nc2sc3c(c2C#N)CCCC3)c(C)c1[N+](=O)[O-]` (configuration not stated), the Potency is reported as inconclusive: 3.66 µM [cytotoxic, full curve].
For `COC(=O)C(C)Sc1nc2c([nH]c3ccccc32)c(=O)n1C` (configuration not stated), the Potency was inconclusive: 23.1 µM [cytotoxic, single point].
For `CC(C)(C)c1csc(NC(=O)c2ccncc2)n1`, the Potency was inconclusive: 7.31 µM [cytotoxic, partial curve].
With `CC[C@]12c3[nH]c4ccc(Cl)cc4c3CCN1C(=O)[C@@H](CC(=O)NCCCn1ccnc1)C[C@@H]2C(=O)N1CCN(C(=O)c2ccco2)CC1` the Potency was “inactive”.
For `CCN(CC)S(=O)(=O)c1ccc2oc(SCc3ccc(F)cc3)nc2c1`, the Potency was inconclusive: 23.1 µM [cytotoxic, partial curve].
In the case of `O=C(O)CCn1cnc2onc(-c3cc(F)cc(F)c3)c2c1=O`, the Potency is reported as inconclusive: 16.4 µM [rising, partial curve, poor fit].
In the case of `Cc1ccc(S(=O)(=O)Cc2ccc(C(=O)N3CCC(C(N)=O)CC3)o2)cc1`, the Potency is reported as inconclusive: 7.31 µM [rising, partial curve].
With `COc1ccc(NC(=O)C(=O)NCC(c2ccco2)N2CCc3ccccc3C2)cc1OC` (configuration not stated) the Potency was inconclusive: 1.3 µM [cytotoxic, full curve].
With `CCCCC(=O)NC(c1ccc(C(C)C)cc1)c1ccc2cccnc2c1O` (configuration not stated) the Potency was “inactive”.
For `Cn1c(SCC(=O)N2CCCC2)nnc1-c1ccc(S(=O)(=O)N2CCCC2)cc1`, the Potency was “inactive”.
With `CC(=O)OC(C(=O)NC1CCCCC1)c1ccccc1F` (configuration not stated) the Potency was inconclusive: 3.66 µM [cytotoxic, partial curve, poor fit].
With `CC1CCCN(c2nc3ccsc3c(=O)s2)C1` (configuration not stated) the Potency was active: 16.4 µM.
In the case of `Cn1cc(C(=O)N2CCN(c3cccc(C(F)(F)F)c3)CC2)c2c3ccccc3n(C)c2c1=O`, the Potency is reported as inconclusive: 29.1 µM [cytotoxic, single point].
With `Cc1ccc(S(=O)(=O)Nc2ccccc2N2CCCCC2)cc1` the Potency was inconclusive: 14.6 µM [cytotoxic, single point].
In the case of `O=C1Cc2cc(S(=O)(=O)N3CCN(c4ccc(Cl)cc4)CC3)ccc2N1`, the Potency is reported as inconclusive: 35.5 µM [rising, partial curve, poor fit].
With `COC(=O)c1cnc(SCc2ccc(Cl)cc2)n1C` the Potency was “inactive”.
In the case of `O=C(NCC(c1cccs1)N1CCOCC1)c1ccc(Cl)nc1` (configuration not stated), the Potency is reported as inconclusive: 29.1 µM [cytotoxic, single point].
For `CCSC1=N/C(=C/c2ccsc2)C(=O)N1c1ccccc1`, the Potency was inconclusive: 29.1 µM [cytotoxic, single point].
In the case of `COc1cccc(NC(=O)C2CCCN(S(=O)(=O)c3ccc4[nH]c(=O)ccc4c3)C2)c1` (configuration not stated), the Potency is reported as inconclusive: 11.6 µM [rising, partial curve, poor fit].
For `COc1ccccc1N1CCN(c2nc(-c3ccc(C)cc3)nc3ccccc23)CC1`, the Potency was “inactive”.
In the case of `CCC(Sc1nc2n[nH]c(C)c2c(=N)n1-c1cccc(Cl)c1C)C(=O)N(CC)CC` (configuration not stated), the Potency is reported as inconclusive: 11.6 µM [cytotoxic, partial curve, poor fit].
For `CC(C)Nc1ncnc2c1cnn2-c1ccc(Cl)cc1`, the Potency was inconclusive: 20.6 µM [cytotoxic, single point].
With `CCn1c(=O)[nH]c2ccccc2c1=O` the Potency was inconclusive: 18.4 µM [cytotoxic, single point].
In the case of `CC(=O)Nc1ccc(N(C(=O)Cc2cccs2)C(C(=O)NC2CCCC2)c2ccncc2)cc1` (configuration not stated), the Potency is reported as “inactive”.
With `CCOc1ccc(NC(=O)CN(c2ccc(Cl)cc2C)S(=O)(=O)c2ccccc2)cc1` the Potency was inconclusive: 29.1 µM [cytotoxic, single point].
For `COc1ccc(Br)cc1S(=O)(=O)Nc1ncn[nH]1`, the Potency was inconclusive: 8.2 µM [rising, partial curve].
In the case of `O=C(/C=C/c1ccc(-c2ccccc2[N+](=O)[O-])o1)c1ccccc1`, the Potency is reported as “inactive”.
With `CCOC(=O)c1cc(N2CCCCC2)nc2ccccc12` the Potency was inconclusive: 13 µM [cytotoxic, partial curve].
With `CCCCn1c(=N)n(CC(O)COc2ccc(C)cc2)c2ccccc21` (configuration not stated) the Potency was inconclusive: 4.47 µM [cytotoxic, full curve, poor fit].
With `Clc1ccc(-c2nc(NCCCN3CCOCC3)c3ccccc3n2)cc1` the Potency was inconclusive: 29.1 µM [cytotoxic, partial curve, poor fit].
In the case of `CC1Cc2cc(/C(O)=C3/C(=O)C(=O)N(CCN4CCOCC4)C3c3ccc(N(C)C)cc3)ccc2O1` (configuration not stated), the Potency is reported as inconclusive: 9.2 µM [rising, partial curve, poor fit].

Reference: PubChem BioAssay AID1347076 (National Center for Advancing Translational Sciences (NCATS), 2019)
Potency is the fitted concentration of half-maximal effect.
